These results are taken from the supplement of paper PMC12819154, “High-throughput peptide-centric local stability assay extends protein–ligand identification to membrane proteins, tissues and bacteria” (Nature Structural & Molecular Biology, 2025).

Chains of the proteins cited; added tags and fusions are not shown. Lines headed by an entry give the natural chain unless they say otherwise; changes in a name come on top.
UniProt P57764: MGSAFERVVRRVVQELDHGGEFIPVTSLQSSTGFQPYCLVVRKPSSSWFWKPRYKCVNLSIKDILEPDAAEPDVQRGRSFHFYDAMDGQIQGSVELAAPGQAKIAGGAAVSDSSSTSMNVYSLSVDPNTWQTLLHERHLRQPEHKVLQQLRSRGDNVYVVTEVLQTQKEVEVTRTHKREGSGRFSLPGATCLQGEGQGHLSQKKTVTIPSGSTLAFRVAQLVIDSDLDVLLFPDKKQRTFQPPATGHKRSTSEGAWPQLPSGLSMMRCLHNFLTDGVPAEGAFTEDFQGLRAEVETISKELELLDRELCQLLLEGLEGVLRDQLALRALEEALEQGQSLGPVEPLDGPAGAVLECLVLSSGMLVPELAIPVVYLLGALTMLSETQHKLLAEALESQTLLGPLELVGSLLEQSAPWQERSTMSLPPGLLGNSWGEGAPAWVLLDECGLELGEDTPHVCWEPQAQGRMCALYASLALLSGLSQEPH
UniProt P60953, whole entry, looked up: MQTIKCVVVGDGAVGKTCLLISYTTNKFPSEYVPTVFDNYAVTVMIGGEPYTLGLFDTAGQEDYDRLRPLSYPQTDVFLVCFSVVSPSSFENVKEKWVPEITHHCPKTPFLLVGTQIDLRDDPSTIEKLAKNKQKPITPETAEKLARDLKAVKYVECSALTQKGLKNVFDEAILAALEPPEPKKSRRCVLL
UniProt P55795: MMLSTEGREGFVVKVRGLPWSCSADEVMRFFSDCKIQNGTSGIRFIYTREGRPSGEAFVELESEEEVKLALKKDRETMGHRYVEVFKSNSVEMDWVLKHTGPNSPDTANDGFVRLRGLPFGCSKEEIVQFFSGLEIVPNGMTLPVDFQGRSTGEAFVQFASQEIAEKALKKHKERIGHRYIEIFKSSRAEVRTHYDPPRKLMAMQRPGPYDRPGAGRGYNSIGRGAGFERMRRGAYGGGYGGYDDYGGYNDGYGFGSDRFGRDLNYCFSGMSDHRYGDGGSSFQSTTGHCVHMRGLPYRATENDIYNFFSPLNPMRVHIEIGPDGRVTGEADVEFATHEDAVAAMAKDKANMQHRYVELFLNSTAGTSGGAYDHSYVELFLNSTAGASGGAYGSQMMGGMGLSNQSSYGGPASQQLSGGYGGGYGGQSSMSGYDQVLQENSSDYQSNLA
UniProt P55957: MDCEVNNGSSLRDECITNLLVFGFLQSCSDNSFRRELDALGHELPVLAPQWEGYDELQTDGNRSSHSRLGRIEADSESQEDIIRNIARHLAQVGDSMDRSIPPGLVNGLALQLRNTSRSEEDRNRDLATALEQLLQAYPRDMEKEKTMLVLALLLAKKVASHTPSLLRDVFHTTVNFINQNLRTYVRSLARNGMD
UniProt P61764, whole entry: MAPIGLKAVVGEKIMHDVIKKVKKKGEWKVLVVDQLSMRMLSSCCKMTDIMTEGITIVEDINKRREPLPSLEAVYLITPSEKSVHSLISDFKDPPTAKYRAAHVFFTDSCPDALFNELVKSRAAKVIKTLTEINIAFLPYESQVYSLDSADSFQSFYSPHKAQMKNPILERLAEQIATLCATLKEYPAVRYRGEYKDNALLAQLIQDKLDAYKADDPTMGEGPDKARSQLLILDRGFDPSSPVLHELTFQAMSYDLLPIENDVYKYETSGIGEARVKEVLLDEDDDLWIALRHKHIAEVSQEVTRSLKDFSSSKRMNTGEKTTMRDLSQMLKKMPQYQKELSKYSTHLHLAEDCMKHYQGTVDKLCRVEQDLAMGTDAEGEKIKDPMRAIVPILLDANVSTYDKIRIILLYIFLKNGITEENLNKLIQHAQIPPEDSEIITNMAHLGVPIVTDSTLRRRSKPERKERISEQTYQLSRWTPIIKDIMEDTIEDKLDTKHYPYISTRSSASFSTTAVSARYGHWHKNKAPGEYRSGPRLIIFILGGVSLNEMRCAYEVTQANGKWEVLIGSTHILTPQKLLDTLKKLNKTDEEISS
UniProt P55854, whole entry: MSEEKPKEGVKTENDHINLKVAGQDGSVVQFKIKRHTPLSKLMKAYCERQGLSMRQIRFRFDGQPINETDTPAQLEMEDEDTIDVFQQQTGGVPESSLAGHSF
UniProt P55786: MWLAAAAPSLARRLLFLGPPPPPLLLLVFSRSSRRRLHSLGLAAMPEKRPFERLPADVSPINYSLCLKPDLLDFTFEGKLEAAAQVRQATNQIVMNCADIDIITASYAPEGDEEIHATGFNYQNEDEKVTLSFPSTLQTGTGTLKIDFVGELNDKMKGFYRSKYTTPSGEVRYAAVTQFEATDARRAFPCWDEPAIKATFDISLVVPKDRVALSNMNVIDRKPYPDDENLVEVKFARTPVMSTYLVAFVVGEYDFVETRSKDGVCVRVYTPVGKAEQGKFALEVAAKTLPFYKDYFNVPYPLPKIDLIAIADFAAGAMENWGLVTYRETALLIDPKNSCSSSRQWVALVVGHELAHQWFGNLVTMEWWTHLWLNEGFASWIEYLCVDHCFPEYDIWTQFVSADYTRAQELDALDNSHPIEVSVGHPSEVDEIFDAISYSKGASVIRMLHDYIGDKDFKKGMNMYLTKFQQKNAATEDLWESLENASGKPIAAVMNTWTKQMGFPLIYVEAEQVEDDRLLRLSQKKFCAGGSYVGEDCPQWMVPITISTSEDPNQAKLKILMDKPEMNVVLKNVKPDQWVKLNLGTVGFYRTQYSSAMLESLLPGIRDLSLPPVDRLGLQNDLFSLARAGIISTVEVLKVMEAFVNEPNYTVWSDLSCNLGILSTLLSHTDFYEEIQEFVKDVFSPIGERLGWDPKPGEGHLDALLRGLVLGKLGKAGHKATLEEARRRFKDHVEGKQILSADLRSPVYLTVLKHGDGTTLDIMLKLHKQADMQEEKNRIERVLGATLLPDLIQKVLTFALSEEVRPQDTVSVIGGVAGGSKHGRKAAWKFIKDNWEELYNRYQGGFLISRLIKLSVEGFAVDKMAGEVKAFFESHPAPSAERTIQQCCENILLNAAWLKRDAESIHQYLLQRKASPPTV
UniProt P61289: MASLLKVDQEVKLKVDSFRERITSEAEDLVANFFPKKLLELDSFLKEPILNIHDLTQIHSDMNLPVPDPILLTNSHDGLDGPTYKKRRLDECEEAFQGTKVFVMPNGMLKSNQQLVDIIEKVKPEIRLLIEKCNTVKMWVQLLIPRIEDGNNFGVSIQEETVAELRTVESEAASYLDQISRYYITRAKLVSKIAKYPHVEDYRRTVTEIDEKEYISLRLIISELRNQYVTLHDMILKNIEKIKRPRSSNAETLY
UniProt P56385: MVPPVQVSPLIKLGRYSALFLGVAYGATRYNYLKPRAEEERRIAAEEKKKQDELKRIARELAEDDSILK
UniProt P82909: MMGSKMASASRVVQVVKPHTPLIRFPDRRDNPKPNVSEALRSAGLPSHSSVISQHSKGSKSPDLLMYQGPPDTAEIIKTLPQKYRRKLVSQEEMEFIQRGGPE
UniProt P62491: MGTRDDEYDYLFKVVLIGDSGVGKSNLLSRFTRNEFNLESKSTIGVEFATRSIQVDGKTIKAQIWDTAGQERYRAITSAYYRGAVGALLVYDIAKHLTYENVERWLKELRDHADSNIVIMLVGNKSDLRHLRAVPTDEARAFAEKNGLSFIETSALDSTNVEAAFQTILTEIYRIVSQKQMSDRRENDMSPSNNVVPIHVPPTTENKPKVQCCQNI
UniProt P62166, whole entry, looked up: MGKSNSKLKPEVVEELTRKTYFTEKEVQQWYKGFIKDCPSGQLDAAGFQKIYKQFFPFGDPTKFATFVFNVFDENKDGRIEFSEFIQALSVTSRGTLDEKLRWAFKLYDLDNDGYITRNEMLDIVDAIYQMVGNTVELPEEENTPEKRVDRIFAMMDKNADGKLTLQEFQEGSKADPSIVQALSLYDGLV
UniProt P55769: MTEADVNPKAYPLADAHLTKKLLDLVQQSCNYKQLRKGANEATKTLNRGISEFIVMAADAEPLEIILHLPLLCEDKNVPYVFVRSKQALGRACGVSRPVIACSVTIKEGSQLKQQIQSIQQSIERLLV
UniProt P57060: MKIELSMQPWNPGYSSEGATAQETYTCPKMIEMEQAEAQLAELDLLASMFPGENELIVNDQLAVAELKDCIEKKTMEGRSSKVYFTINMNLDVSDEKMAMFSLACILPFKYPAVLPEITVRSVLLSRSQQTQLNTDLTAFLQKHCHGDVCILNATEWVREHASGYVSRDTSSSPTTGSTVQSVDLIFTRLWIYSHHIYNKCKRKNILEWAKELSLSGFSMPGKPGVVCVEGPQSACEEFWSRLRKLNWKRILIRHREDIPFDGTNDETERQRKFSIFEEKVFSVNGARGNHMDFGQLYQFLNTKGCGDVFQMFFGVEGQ
UniProt P80217: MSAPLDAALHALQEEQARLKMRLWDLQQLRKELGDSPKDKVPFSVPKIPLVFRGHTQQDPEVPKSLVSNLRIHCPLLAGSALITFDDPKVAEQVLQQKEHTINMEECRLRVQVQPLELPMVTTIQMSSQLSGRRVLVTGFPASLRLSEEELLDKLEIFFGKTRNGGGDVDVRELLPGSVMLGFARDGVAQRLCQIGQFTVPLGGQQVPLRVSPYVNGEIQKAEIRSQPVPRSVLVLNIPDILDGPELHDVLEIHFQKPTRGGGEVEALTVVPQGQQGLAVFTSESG
UniProt P62834: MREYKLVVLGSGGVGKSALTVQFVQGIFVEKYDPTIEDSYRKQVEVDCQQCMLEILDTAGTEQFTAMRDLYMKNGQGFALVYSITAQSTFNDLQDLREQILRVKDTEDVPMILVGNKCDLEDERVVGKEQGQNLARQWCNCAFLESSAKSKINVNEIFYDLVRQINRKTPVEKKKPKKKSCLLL
UniProt P60228, whole entry: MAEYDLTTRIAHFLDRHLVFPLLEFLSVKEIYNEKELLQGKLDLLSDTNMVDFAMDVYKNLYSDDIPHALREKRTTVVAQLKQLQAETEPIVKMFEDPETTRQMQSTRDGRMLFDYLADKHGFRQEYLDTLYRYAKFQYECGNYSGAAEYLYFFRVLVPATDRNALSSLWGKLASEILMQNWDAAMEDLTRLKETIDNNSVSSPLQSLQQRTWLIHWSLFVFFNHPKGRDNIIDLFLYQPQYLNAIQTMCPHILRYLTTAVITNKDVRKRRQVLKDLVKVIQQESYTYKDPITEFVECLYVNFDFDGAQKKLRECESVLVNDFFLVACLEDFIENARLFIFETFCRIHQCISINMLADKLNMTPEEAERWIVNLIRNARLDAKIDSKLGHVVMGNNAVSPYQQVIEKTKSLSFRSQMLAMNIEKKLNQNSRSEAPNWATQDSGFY
UniProt P60604: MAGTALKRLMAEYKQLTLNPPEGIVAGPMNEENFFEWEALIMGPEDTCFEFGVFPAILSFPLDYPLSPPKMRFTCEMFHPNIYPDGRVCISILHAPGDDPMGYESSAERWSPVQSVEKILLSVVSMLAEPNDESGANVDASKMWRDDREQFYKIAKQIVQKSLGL
UniProt P56282: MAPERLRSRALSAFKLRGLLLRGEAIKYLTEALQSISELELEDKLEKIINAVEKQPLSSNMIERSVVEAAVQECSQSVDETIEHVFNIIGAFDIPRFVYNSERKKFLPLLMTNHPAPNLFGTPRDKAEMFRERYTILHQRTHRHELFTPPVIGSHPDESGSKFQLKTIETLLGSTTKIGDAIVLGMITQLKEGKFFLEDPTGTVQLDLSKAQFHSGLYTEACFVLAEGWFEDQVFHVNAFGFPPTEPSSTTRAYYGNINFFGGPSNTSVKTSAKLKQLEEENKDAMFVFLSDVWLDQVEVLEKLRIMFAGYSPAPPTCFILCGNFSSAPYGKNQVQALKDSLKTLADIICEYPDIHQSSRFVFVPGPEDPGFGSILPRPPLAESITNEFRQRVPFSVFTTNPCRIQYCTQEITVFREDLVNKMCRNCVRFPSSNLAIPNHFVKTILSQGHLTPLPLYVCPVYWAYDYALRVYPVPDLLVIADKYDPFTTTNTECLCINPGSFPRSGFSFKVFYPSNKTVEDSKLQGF
UniProt P59780: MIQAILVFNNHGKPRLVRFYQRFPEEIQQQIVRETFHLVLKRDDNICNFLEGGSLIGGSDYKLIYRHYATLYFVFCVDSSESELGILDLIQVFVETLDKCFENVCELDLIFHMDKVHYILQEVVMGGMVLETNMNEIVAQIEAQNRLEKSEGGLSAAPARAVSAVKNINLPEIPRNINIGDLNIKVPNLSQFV
UniProt P78314: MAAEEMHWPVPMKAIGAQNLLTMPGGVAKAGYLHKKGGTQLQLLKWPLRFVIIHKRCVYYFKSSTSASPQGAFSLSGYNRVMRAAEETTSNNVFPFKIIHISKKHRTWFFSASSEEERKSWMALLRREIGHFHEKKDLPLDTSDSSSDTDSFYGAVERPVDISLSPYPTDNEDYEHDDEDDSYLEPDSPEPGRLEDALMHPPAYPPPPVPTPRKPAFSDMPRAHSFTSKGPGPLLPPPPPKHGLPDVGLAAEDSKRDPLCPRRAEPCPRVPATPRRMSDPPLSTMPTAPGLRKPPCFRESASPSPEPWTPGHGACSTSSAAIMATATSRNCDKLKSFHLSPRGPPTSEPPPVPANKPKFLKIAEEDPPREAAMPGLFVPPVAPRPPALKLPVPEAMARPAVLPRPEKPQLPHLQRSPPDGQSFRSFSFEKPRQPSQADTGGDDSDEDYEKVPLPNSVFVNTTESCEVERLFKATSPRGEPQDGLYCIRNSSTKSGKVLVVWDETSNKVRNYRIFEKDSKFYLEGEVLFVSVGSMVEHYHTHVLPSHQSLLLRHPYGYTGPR

This is one part of the list. Most entries show no effect beyond the scatter of the controls.

Compound in the experiment: Cc1nc(Nc2ncc(C(=O)Nc3c(C)cccc3Cl)s2)cc(N2CCN(CCO)CC2)n1 [dasatinib]
Nature of the experiment: log2 fold change of tryptic peptide abundance, ligand vs vehicle (limited proteolysis) (log2 ratio); higher = more trypsin-susceptible (destabilized). As to conditions: ligand concentration: 5 uM; sample: K562 cleared lysate.
“GSDMD (peptide sequence: TFQPPATGHKR, peptide start residue: 239) (UniProt P57764)”: the log2 fold change came out at 0.248.

For “UniProt P62244 (peptide sequence: QFGFIVLTTSAGIMDHEEARRK, peptide start residue: 98)”, the log2 fold change stood at 0.48.

With “UniProt P62987 (peptide sequence: YNCDKMICR, peptide start residue: 89)”, the log2 fold change was -0.0568.

Regarding “SRPK2 (peptide sequence: LQEIEELEREAER, peptide start residue: 287) (UniProt P78362)”, the log2 fold change was 0.131.

On to “UniProt P60709 (peptide sequence: YPIEHGIVTNWDDMEK, peptide start residue: 69)”, for which the log2 fold change came out at 0.0967.

Consider “UniProt P60953 (peptide sequence: QKPITPETAEK, peptide start residue: 134)”, for which the log2 fold change was -0.168.

“UniProt P62837 (peptide sequence: IHKELNDLAR, peptide start residue: 6)”: the log2 fold change is -0.954.

Consider “CCT2 (peptide sequence: STLGPKGMDKILLSSGR, peptide start residue: 41) (UniProt P78371)”, for which the log2 fold change was 0.285.

With “HNRNPH2 (peptide sequence: YGDGGSSFQSTTGHCVHMR, peptide start residue: 276) (UniProt P55795)”, the log2 fold change was -0.039.

On to “PHC1 (peptide sequence: MKEFQEANYAR, peptide start residue: 842) (UniProt P78364)”, for which the log2 fold change was found to be 0.48.

“BID (peptide sequence: IEADSESQEDIIRNIAR, peptide start residue: 72) (UniProt P55957)”: the log2 fold change worked out at 0.251.

On to “UniProt P61764 (peptide sequence: HYPYISTR, peptide start residue: 498)”, for which the log2 fold change was determined as 0.212.

Turning to “PSMA6 (peptide sequence: GKDCAVIVTQK, peptide start residue: 44) (UniProt P60900)”, the log2 fold change is 0.52.

As for “RPS27A (peptide sequence: LRRECPSDECGAGVFMASHFDR, peptide start residue: 117) (UniProt P62979)”, the log2 fold change is -0.169.

As for “SUMO3 (peptide sequence: TENDHINLK, peptide start residue: 12) (UniProt P55854)”, the log2 fold change is -0.126.

As to “NPEPPS (peptide sequence: LGWDPKPGEGHLDALLR, peptide start residue: 690) (UniProt P55786)”, the log2 fold change was 0.25.

As for “UniProt P61289 (peptide sequence: LLIEKCNTVK, peptide start residue: 128)”, the log2 fold change was -0.487.

Take “UniProt P56385 (peptide sequence: ELAEDDSILK, peptide start residue: 60)”: the log2 fold change came out at 0.05.

With “UniProt P62701 (peptide sequence: FDTGNLCMVTGGANLGR, peptide start residue: 175)”, the log2 fold change came out at 0.323.

As for “MRPS36 (peptide sequence: KLVSQEEMEFIQR, peptide start residue: 87) (UniProt P82909)”, the log2 fold change came out at 0.0706.

For “UniProt P62491 (peptide sequence: AQIWDTAGQER, peptide start residue: 62)”, the log2 fold change came out at 0.0747.

Take “EIF6 (peptide sequence: NSLPDTVQIR, peptide start residue: 86) (UniProt P56537)”: the log2 fold change is -0.0255.

On to “RPL10A (peptide sequence: KVLCLAVAVGHVK, peptide start residue: 161) (UniProt P62906)”, for which the log2 fold change stood at 0.11.

As for “NCS1 (peptide sequence: LKPEVVEELTR, peptide start residue: 8) (UniProt P62166)”, the log2 fold change came to 0.00306.

For “P63268 (peptide sequence: PEYDEAGPSIVHR, peptide start residue: 361) (UniProt P63267)”, the log2 fold change stood at 0.304.

Regarding “UniProt P55769 (peptide sequence: ACGVSRPVIACSVTIK, peptide start residue: 92)”, the log2 fold change was -0.0839.

With “RWDD2B (peptide sequence: GNHMDFGQLYQFLNTK, peptide start residue: 289) (UniProt P57060)”, the log2 fold change amounted to 0.383.

With “IFI35 (peptide sequence: EHTINMEECRLR, peptide start residue: 99) (UniProt P80217)”, the log2 fold change was found to be 0.719.

Take “UniProt P62834 (peptide sequence: LVVLGSGGVGK, peptide start residue: 6)”: the log2 fold change came to 0.127.

Regarding “UniProt P60228 (peptide sequence: QEYLDTLYR, peptide start residue: 125)”, the log2 fold change stood at 0.296.

Regarding “UniProt P60604 (peptide sequence: MWRDDREQFYK, peptide start residue: 143)”, the log2 fold change is -0.301.

Regarding “POLE2 (peptide sequence: IINAVEKQPLSSNMIER, peptide start residue: 48) (UniProt P56282)”, the log2 fold change is -0.291.

As to “SEC61B (peptide sequence: KNASCGTRSAGR, peptide start residue: 35) (UniProt P60468)”, the log2 fold change was 0.25.

As to “UniProt P59780 (peptide sequence: SEGGLSAAPAR, peptide start residue: 150)”, the log2 fold change was -0.155.

As to “SH3BP2 (peptide sequence: GPGPLLPPPPPK, peptide start residue: 230) (UniProt P78314)”, the log2 fold change was -0.507.

For “UniProt P62875 (peptide sequence: LLNYAPLEK, peptide start residue: 59)”, the log2 fold change turned out to be 0.0343.

Consider “UniProt P61960 (peptide sequence: ITLTSDPRLPYK, peptide start residue: 8)”, for which the log2 fold change was -0.0581.
